Reference: EP4549424A1, “NEW LITHIUM EXTRACTING AGENT AND LIQUID ORGANIC MIXTURE THEREOF, AND METHOD FOR EXTRACTING LITHIUM BY MEANS OF EXTRACTION” (Beijing Salt Lake Technology Development Company Limited, priority 2022, dated 2024)

Key:
[1] = pH of aqueous phase after extraction or stripping; conditions: 0.6 M sulfuric acid aqueous solution; volume, time and loaded organic mixture per example
[2] = Stripping of lithium-loaded organic mixture with sulfuric acid aqueous solution: lithium; conditions: 0.6 M sulfuric acid aqueous solution; volume, time and loaded organic mixture per example

Compound	pH, lithium-containing solution FC1 obtained from stripping [1]	cLi, lithium-containing solution FC1 obtained from stripping [2]
4-octyloxy-2,5-dinitro-2-hydroxydibenzophenone [Example 20]	< 1	0.449 g/L
O=C(c1ccccc1)c1cc([N+](=O)[O-])c(OCc2ccccc2)cc1O [Example 24, 4-benzyloxy-5-nitro-2-hydroxydibenzophenone]	< 1	1.752 g/L
